No constants are given. Whether binding was seen depends on the method and setting. In cells and extracts the contact can be indirect. Some results given as binding are weak or reduced against the parent protein; the word gives no strength.
Biological target: Caveolin-1 (CAV1), in MDA-MB-231 breast cancer cells (human (endogenous in MDA-MB-231)) (UniProt Q03135)
Assay: co-IP; MDA-MB-231 cells; RIPA lysate with PMSF and phosphatase inhibitor; Caveolin-1 antibody or species-matched IgG overnight at 4°C, Protein A/G agarose 2-4 h, 3 PBS washes; Western blot

Sequences of proteins named here, by UniProt entry; tags and fusion partners are left off.
UniProt Q03135: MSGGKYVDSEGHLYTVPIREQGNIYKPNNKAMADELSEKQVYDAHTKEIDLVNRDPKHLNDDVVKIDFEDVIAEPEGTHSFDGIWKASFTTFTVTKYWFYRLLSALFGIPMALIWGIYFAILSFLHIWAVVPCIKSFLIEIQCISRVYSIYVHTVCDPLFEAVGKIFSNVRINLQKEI
UniProt Q05397: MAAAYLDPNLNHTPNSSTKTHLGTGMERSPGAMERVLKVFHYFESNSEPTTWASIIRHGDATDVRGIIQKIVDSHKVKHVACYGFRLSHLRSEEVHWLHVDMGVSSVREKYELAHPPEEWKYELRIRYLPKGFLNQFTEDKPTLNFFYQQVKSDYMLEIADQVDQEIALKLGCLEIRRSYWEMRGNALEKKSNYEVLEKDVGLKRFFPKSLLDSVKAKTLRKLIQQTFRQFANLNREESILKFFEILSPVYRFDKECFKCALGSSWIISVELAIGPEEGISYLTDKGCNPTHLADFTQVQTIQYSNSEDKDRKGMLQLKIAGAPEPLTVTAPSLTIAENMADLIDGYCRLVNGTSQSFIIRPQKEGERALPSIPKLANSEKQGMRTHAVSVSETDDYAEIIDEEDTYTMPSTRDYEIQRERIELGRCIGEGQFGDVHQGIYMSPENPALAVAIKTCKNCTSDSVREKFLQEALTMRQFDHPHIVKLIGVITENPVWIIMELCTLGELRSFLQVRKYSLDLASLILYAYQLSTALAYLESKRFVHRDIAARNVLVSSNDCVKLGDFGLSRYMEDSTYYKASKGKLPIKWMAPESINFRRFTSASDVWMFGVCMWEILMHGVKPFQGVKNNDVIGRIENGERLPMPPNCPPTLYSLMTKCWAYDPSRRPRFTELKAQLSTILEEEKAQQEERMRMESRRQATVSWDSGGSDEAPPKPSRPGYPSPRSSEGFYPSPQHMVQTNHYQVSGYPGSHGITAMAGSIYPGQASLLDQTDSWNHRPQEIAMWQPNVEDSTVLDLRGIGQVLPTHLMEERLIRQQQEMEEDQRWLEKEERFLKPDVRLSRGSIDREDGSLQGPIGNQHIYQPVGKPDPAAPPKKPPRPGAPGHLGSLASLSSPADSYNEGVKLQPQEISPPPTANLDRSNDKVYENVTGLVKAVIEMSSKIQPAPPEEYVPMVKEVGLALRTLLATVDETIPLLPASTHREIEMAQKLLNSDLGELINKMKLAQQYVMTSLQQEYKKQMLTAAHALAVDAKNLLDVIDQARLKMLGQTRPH

binding | Molecule
binds | Focal adhesion kinase (FAK) (from UniProt Q05397 1-1052) (enzyme)
no binding | Integrin α6 (ITGA6) (receptor, UniProt P23229 24-1130) FNLDTREDNVIRKYGDPGSLFGFSLAMHWQLQPEDKRLLLVGAPRAEALPLQRANRTGGLYSCDITARGPCTRIEFDNDADPTSESKEDQWMGVTVQSQGPGGKVVTCAHRYEKRQHVNTKQESRDIFGRCYVLSQNLRIEDDMDGGDWSFCDGRLRGHEKFGSCQQGVAATFTKDFHYIVFGAPGTYNWKGIVRVEQKNNTFFDMNIFEDGPYEVGGETEHDESLVPVPANSYLGLLFLTSVSYTDPDQFVYKTRPPREQPDTFPDVMMNSYLGFSLDSGKGIVSKDEITFVSGAPRANHSGAVVLLKRDMKSAHLLPEHIFDGEGLASSFGYDVAVVDLNKDGWQDIVIGAPQYFDRDGEVGGAVYVYMNQQGRWNNVKPIRLNGTKDSMFGIAVKNIGDINQDGYPDIAVGAPYDDLGKVFIYHGSANGINTKPTQVLKGISPYFGYSIAGNMDLDRNSYPDVAVGSLSDSVTIFRSRPVINIQKTITVTPNRIDLRQKTACGAPSGICLQVKSCFEYTANPAGYNPSISIVGTLEAEKERRKSGLSSRVQFRNQGSEPKYTQELTLKRQKQKVCMEETLWLQDNIRDKLRPIPITASVEIQEPSSRRRVNSLPEVLPILNSDEPKTAHIDVHFLKEGCGDDNVCNSNLKLEYKFCTREGNQDKFSYLPIQKGVPELVLKDQKDIALEITVTNSPSNPRNPTKDGDDAHEAKLIATFPDTLTYSAYRELRAFPEKQLSCVANQNGSQADCELGNPFKRNSNVTFYLVLSTTEVTFDTPDLDINLKLETTSNQDNLAPITAKAKVVIELLLSVSGVAKPSQVYFGGTVVGEQAMKSEDEVGSLIEYEFRVINLGKPLTNLGTATLNIQWPKEISNGKWLLYLVKVESKGLEKVTCEPQKEINSLNLTESHNSRKKREITEKQIDDNRKFSLFAERKYQTLNCSVNVNCVNIRCPLRGLDSKASLILRSRLWNSTFLEEYSKLNYLDILMRAFIDVTAAAENIRLPNAGTQVRVTVFPSKTVAQYSGVPWWIILVAILAGILMLALLVFILWKCGFFKRSRYDDSVPRYHAVRIRKEEREIKDEKYIDNLEKKQWITKWNENESYS

— article PMC11528463
